These results are taken from patent US20090232853A1, “TREATMENT OF LAMINITIS” (priority 2005, published 2009).

In one series the test system is equine cecal contents. Nature of the series: in vitro model of equine hindgut, carbohydrate overload: pH and amine production.
The test system of another series is ponies. Nature of the series: effect of dietary fructan carbohydrates on normal and laminitic ponies. The class given is in vivo. The text has this:
Eleven adult, native breed ponies were used in the diet study; 5 normals and 6 predisposed to laminitis (asymptomatic at the time of the study). A basal hay diet was fed for 2 weeks, prior to the inclusion of inulin (sourced from chicory root; 3 g/kg body weight per day), fed in 3 equal feeds. The daily forage ration also included ⅔ hay, by weight, and ⅓ Readigrass® (to act as a source of amino acids). Fecal and blood samples were taken during both diets to measure amine concentration (by HPLC and LC-MS, respectively) and fecal pH.

As to inulin, in the series with equine cecal contents (end of 24 hour incubation, carbohydrate 1 g/100 mL, compared to control, HPLC), the “concentrations of the caecal-derived amines phenylethylamine, isoamylamine, putriscine and cadaverine” value is given as “significantly greater concentrations”. Also, the “pH in the model system” value in the series with equine cecal contents (incubated 24 h with carbohydrate 1 g/100 mL, compared with control without added carbohydrate) is recorded as “fell significantly”. In addition, the “faecal pH” value in the series on ponies (24 hours after beginning of inulin diet (3 g/kg per day), from mean 6.9±0.1 on basal diet, p<0.05) worked out at 6.2±0.1. Further, the “plasma concentrations of the vasoactive amines” value in the series with ponies (inulin diet, FIG. 13, LC-MS) is “increased”. The plasma phenylethylamine concentration entry in the series with ponies (inulin diet, Wilcoxon signed rank test P=0.034) is “significant increase”.
